Reference: ChEMBL document CHEMBL5465560, “Selectivity Literature for EUbOPEN Chemogenomic Library” (2024)

Amino acid sequences for entries named in this document (tags omitted). A change or cut given only in a name is not applied to a line headed by its entry.
UniProt Q9UBE8: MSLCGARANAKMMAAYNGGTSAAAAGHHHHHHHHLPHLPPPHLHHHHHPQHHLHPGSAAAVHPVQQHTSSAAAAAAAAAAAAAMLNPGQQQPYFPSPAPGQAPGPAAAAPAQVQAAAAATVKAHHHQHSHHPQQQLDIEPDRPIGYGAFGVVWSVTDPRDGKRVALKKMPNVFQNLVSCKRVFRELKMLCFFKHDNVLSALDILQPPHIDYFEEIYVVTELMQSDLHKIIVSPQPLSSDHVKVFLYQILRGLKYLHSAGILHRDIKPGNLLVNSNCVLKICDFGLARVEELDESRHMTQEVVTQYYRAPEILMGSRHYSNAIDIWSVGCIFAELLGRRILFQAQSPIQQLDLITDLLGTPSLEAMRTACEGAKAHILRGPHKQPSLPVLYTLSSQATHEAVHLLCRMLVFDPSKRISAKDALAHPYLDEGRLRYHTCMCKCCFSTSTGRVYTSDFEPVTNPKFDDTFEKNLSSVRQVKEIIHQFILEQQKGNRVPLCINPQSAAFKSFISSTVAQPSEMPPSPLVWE
UniProt P11362, whole entry, looked up: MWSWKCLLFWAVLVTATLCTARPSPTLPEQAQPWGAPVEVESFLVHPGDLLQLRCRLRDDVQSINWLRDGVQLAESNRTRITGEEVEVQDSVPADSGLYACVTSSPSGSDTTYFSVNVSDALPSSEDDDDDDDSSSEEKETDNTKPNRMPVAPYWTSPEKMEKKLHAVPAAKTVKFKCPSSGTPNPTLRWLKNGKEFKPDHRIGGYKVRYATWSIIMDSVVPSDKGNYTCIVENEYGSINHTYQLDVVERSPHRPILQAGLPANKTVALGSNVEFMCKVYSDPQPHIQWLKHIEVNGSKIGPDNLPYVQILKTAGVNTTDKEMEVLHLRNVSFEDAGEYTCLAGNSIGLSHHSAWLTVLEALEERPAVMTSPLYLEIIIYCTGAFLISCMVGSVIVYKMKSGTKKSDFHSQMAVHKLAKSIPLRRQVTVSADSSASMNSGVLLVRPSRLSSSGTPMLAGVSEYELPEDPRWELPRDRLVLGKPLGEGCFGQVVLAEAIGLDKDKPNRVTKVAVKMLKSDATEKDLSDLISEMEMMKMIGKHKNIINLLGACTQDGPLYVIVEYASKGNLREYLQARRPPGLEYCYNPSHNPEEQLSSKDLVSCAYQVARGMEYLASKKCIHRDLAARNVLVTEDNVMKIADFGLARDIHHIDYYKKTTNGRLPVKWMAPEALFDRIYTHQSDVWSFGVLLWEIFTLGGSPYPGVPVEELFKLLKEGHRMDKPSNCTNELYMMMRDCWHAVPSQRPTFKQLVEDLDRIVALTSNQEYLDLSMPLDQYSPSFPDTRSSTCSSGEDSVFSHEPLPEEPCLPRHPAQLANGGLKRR
UniProt P54646: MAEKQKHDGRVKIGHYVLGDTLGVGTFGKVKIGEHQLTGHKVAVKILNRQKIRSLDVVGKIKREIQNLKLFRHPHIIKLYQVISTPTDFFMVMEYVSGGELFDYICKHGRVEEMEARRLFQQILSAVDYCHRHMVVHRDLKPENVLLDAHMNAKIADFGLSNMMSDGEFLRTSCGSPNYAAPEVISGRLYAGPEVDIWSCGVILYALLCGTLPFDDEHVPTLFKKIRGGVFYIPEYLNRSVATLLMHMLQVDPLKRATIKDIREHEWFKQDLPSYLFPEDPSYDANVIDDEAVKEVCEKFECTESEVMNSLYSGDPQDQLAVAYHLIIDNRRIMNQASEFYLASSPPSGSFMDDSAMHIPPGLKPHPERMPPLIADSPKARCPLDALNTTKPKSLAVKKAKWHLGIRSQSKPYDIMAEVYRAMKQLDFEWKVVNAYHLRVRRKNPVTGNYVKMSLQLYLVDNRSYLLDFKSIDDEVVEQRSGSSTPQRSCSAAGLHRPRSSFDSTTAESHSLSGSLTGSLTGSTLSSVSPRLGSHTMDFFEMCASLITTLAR
UniProt P48729: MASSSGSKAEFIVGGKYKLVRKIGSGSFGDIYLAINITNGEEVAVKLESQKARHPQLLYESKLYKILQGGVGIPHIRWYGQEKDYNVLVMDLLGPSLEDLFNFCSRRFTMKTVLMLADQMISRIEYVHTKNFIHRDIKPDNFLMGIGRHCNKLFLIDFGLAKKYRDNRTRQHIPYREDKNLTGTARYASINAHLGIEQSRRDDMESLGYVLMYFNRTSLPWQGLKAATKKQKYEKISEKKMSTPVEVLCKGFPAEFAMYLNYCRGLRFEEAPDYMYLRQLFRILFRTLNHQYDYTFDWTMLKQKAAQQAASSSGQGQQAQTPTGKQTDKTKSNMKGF
UniProt Q9UIK4: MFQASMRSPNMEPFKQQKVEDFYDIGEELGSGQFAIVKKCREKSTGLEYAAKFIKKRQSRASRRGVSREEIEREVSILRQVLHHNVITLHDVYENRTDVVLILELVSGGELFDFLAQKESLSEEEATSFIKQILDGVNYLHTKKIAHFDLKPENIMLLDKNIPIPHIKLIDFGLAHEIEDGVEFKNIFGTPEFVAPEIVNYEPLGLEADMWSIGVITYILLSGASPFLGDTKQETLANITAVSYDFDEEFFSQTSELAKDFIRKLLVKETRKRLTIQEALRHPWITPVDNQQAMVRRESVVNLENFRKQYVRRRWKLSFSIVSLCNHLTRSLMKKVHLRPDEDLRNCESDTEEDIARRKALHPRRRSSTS
UniProt Q9Y243: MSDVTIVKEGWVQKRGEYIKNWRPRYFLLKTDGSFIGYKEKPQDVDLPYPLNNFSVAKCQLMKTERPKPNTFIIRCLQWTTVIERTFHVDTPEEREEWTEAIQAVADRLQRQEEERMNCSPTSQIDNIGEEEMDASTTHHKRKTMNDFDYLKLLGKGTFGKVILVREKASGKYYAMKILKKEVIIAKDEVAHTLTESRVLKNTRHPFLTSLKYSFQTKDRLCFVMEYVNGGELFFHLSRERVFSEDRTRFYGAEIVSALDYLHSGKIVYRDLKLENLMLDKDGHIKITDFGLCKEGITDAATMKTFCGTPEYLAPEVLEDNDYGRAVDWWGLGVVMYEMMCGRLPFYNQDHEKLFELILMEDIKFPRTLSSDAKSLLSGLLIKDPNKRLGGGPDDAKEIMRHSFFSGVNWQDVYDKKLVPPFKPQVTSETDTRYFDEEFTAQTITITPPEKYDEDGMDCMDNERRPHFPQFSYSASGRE
UniProt P36896: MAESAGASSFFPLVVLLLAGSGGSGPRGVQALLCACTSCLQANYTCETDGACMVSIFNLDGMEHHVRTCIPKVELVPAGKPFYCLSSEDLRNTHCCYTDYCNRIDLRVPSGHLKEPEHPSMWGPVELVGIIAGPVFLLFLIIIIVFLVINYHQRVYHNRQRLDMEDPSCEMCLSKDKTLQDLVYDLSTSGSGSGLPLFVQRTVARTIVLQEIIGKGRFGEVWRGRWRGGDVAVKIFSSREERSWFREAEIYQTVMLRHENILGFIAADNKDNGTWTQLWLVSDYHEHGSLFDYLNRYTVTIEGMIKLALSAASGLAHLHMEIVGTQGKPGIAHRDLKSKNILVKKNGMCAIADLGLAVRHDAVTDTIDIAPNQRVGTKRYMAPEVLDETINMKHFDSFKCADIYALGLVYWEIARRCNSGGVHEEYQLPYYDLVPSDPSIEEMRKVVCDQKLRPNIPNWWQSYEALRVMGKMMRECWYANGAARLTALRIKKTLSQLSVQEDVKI
UniProt Q9UKE5: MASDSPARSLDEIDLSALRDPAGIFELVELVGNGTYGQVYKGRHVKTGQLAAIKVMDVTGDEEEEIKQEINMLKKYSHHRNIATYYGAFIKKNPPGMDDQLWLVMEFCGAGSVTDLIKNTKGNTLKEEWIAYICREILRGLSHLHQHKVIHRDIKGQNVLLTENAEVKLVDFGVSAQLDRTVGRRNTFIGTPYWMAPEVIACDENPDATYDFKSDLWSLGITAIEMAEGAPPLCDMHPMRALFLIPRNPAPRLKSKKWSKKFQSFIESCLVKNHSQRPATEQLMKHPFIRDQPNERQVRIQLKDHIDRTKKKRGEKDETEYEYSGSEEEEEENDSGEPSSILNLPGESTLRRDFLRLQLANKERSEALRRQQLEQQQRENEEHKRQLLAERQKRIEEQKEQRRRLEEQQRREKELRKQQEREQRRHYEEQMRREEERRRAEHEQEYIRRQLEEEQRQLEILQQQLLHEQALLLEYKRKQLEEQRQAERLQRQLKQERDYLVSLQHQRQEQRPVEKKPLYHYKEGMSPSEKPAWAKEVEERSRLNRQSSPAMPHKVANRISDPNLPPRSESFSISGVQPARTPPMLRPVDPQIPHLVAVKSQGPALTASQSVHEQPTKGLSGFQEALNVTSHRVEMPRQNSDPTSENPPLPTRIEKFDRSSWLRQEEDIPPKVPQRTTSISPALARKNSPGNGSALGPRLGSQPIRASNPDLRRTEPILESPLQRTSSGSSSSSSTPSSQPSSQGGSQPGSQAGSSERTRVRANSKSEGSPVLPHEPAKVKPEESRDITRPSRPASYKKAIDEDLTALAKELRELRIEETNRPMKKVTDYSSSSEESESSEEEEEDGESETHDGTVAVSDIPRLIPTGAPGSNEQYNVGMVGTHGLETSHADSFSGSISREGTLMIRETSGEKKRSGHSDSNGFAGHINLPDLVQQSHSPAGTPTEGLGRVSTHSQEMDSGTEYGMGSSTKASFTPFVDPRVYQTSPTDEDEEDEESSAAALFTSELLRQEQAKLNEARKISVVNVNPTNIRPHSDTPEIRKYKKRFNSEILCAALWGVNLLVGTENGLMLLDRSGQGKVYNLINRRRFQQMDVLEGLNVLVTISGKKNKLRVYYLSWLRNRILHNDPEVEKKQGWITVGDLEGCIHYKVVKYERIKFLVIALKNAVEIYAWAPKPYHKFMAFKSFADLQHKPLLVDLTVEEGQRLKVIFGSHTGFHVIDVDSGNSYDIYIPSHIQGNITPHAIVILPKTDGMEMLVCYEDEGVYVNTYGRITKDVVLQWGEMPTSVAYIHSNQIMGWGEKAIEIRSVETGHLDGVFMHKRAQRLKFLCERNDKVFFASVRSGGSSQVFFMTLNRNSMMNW
UniProt Q8N5S9: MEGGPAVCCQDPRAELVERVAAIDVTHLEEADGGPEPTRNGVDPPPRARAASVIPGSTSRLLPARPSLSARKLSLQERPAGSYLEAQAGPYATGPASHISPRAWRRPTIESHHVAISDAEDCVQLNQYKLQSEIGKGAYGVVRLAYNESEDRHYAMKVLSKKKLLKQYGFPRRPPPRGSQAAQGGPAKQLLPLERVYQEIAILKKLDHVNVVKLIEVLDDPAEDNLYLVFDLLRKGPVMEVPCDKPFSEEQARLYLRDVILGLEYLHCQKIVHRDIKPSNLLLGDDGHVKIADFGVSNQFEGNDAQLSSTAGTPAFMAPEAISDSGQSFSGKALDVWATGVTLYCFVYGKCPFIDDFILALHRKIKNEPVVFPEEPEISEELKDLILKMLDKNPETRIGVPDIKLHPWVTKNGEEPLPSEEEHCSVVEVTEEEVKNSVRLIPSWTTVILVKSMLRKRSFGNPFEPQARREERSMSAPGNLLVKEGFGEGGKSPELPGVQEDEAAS
UniProt O95835: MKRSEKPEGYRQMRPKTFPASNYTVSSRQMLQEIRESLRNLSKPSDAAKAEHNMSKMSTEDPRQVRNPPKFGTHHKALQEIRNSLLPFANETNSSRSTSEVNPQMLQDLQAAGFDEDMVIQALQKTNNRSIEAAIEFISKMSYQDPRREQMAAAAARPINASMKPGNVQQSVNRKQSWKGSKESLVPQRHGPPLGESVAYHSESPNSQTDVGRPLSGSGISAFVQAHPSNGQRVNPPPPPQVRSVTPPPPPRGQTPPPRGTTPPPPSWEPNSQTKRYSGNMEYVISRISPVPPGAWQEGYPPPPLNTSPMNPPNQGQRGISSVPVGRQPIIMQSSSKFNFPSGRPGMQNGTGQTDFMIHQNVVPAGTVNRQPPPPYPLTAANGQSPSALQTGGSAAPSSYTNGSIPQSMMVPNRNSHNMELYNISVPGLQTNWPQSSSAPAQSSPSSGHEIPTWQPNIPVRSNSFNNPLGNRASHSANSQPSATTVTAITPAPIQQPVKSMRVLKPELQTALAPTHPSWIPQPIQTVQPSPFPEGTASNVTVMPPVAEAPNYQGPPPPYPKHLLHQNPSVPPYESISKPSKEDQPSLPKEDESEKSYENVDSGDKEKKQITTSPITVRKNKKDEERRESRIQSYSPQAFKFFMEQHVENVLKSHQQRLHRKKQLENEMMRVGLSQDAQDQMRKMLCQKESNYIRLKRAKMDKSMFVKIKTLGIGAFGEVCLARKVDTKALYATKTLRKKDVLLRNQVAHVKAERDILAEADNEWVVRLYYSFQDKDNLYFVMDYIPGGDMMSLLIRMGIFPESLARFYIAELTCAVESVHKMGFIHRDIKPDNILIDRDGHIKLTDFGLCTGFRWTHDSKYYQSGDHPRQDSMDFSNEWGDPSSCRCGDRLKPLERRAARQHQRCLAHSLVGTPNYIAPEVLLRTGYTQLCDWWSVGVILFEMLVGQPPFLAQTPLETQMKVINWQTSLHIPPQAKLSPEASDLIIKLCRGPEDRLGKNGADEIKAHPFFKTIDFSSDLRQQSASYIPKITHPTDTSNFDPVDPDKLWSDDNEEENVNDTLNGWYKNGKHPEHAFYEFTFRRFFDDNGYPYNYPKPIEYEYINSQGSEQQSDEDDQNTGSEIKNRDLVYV

How the values were obtained:
Settings in all cases: at 1 µM
[1] = biological target: AP2-associated protein kinase 1 (Homo sapiens, UniProt Q2M2I8); experiment: Selectivity interaction (KinomeScan (DiscoverX)) EUB0001581a AAK1
[2] = biological target: Wee1-like protein kinase 2 (Homo sapiens) (UniProt P0C1S8)
[3] = biological target: Tyrosine-protein kinase Tec (Homo sapiens) (UniProt P42680); experiment: Selectivity interaction (KinomeScan (DiscoverX)) EUB0001581a TEC
[4] = biological target: Ephrin type-A receptor 1 (Homo sapiens) (UniProt P21709); experiment: Selectivity interaction (KinomeScan (DiscoverX)) EUB0001581a EPHA1
[5] = biological target: Angiopoietin-1 receptor (Homo sapiens) (UniProt Q02763); experiment: Selectivity interaction (KinomeScan (DiscoverX)) EUB0001581a TEK
[6] = biological target: Cyclin-dependent kinase-like 3 (Homo sapiens) (UniProt Q8IVW4); experiment: Selectivity interaction (KinomeScan (DiscoverX)) EUB0001581a CDKL3
[7] = biological target: Discoidin domain-containing receptor 2 (Homo sapiens) (UniProt Q16832); experiment: Selectivity interaction (KinomeScan (DiscoverX)) EUB0001581a DDR2
[8] = biological target: Tyrosine-protein kinase JAK1 (Homo sapiens, UniProt P23458); experiment: Selectivity interaction (KinomeScan (DiscoverX)) EUB0001581a JAK1
[9] = biological target: Casein kinase I isoform alpha-like (Homo sapiens) (UniProt Q8N752); experiment: Selectivity interaction (KinomeScan (DiscoverX)) EUB0001581a CSNK1A1L
[10] = biological target: Cyclin-dependent kinase 19 (Homo sapiens) (UniProt Q9BWU1); experiment: Selectivity interaction (KinomeScan (DiscoverX)) EUB0001581a CDK19
[11] = biological target: Serine/threonine-protein kinase LATS2 (Homo sapiens) (UniProt Q9NRM7); experiment: Selectivity interaction (KinomeScan (DiscoverX)) EUB0001581a LATS2
[12] = biological target: Calcium/calmodulin-dependent protein kinase kinase 2 (Homo sapiens) (UniProt Q96RR4); experiment: Selectivity interaction (KinomeScan (DiscoverX)) EUB0001581a CAMKK2
[13] = biological target: Serine/threonine-protein kinase NLK (Homo sapiens) (UniProt Q9UBE8); experiment: Selectivity interaction (KinomeScan (DiscoverX)) EUB0001581a NLK
[14] = biological target: Fibroblast growth factor receptor 1 (Homo sapiens, UniProt P11362); experiment: Selectivity interaction (KinomeScan (DiscoverX)) EUB0001581a FGFR1
[15] = biological target: 5'-AMP-activated protein kinase catalytic subunit alpha-2 (Homo sapiens) (UniProt P54646); experiment: Selectivity interaction (KinomeScan (DiscoverX)) EUB0001581a PRKAA2
[16] = biological target: MAP kinase-activated protein kinase 5 (Homo sapiens) (UniProt Q8IW41); experiment: Selectivity interaction (KinomeScan (DiscoverX)) EUB0001581a MAPKAPK5
[17] = biological target: Casein kinase II subunit alpha' (Homo sapiens) (UniProt P19784); experiment: Selectivity interaction (KinomeScan (DiscoverX)) EUB0001581a CSNK2A2
[18] = biological target: Mitogen-activated protein kinase 7 (Homo sapiens) (UniProt Q13164); experiment: Selectivity interaction (KinomeScan (DiscoverX)) EUB0001581a MAPK7
[19] = biological target: Tyrosine-protein kinase BTK (Homo sapiens, UniProt Q06187); experiment: Selectivity interaction (KinomeScan (DiscoverX)) EUB0001581a BTK
[20] = biological target: Mitogen-activated protein kinase 15 (Homo sapiens) (UniProt Q8TD08); experiment: Selectivity interaction (KinomeScan (DiscoverX)) EUB0001581a MAPK15
[21] = biological target: Serine/threonine-protein kinase 32B (Homo sapiens) (UniProt Q9NY57); experiment: Selectivity interaction (KinomeScan (DiscoverX)) EUB0001581a STK32B
[22] = biological target: Casein kinase I isoform alpha (Homo sapiens, UniProt P48729); experiment: Selectivity interaction (KinomeScan (DiscoverX)) EUB0001581a CSNK1A1
[23] = biological target: Death-associated protein kinase 2 (Homo sapiens) (UniProt Q9UIK4); experiment: Selectivity interaction (KinomeScan (DiscoverX)) EUB0001581a DAPK2
[24] = biological target: Bone morphogenetic protein receptor type-1B (Homo sapiens, UniProt O00238); experiment: Selectivity interaction (KinomeScan (DiscoverX)) EUB0001581a BMPR1B
[25] = biological target: Epidermal growth factor receptor (Homo sapiens, UniProt P00533); experiment: (§1) Selectivity interaction (KinomeScan (DiscoverX)) EUB0001581a EGFR
[26] = tested on: Epidermal growth factor receptor (Homo sapiens), P00533 [UNDEFINED MUTATION]; experiment: as §1
[27] = biological target: RAC-gamma serine/threonine-protein kinase (Homo sapiens, UniProt Q9Y243)
[28] = biological target: Serine/threonine-protein kinase Chk1 (Homo sapiens) (UniProt O14757); experiment: Selectivity interaction (KinomeScan (DiscoverX)) EUB0001581a CHEK1
[29] = biological target: Activin receptor type-1B (Homo sapiens) (UniProt P36896); experiment: Selectivity interaction (KinomeScan (DiscoverX)) EUB0001581a ACVR1B
[30] = biological target: Vascular endothelial growth factor receptor 1 (Homo sapiens) (UniProt P17948); experiment: Selectivity interaction (KinomeScan (DiscoverX)) EUB0001581a FLT1
[31] = biological target: TRAF2 and NCK-interacting protein kinase (Homo sapiens) (UniProt Q9UKE5); experiment: Selectivity interaction (KinomeScan (DiscoverX)) EUB0001581a TNIK
[32] = biological target: SRSF protein kinase 2 (Homo sapiens) (UniProt P78362); experiment: Selectivity interaction (KinomeScan (DiscoverX)) EUB0001581a SRPK2
[33] = biological target: Calcium/calmodulin-dependent protein kinase kinase 1 (Homo sapiens) (UniProt Q8N5S9); experiment: Selectivity interaction (KinomeScan (DiscoverX)) EUB0001581a CAMKK1
[34] = biological target: Serine/threonine-protein kinase STK11 (Homo sapiens) (UniProt Q15831); experiment: Selectivity interaction (KinomeScan (DiscoverX)) EUB0001581a STK11
[35] = biological target: Serine/threonine-protein kinase TBK1 (Homo sapiens) (UniProt Q9UHD2); experiment: Selectivity interaction (KinomeScan (DiscoverX)) EUB0001581a TBK1
[36] = biological target: RAF proto-oncogene serine/threonine-protein kinase (Homo sapiens) (UniProt P04049); experiment: Selectivity interaction (KinomeScan (DiscoverX)) EUB0001581a RAF1
[37] = biological target: Myosin light chain kinase (Homo sapiens) (UniProt Q32MK0); experiment: Selectivity interaction (KinomeScan (DiscoverX)) EUB0001581a MYLK3
[38] = biological target: Serine/threonine-protein kinase LATS1 (Homo sapiens) (UniProt O95835); experiment: Selectivity interaction (KinomeScan (DiscoverX)) EUB0001581a LATS1
[39] = biological target: Casein kinase I isoform gamma-2 (Homo sapiens) (UniProt P78368); experiment: Selectivity interaction (KinomeScan (DiscoverX)) EUB0001581a CSNK1G2

## C[C@@H]1C[C@H](N)C[C@H](c2ccncc2NC(=O)c2ccc(F)c(-c3c(F)cccc3F)n2)C1
[1]
  % of control: 81%
[2]
  % of control: 96%
[3]
  % of control: 100%
[4]
  % of control: 100%
[5]
  % of control: 100%
[6]
  % of control: 100%
[7]
  % of control: 100%
[8]
  % of control: 99%
[9]
  % of control: 100%
[10]
  % of control: 100%
[11]
  % of control: 100%
[12]
  % of control: 100%
[13]
  % of control: 100%
[14]
  % of control: 97%
[15]
  % of control: 85%
[16]
  % of control: 88%
[17]
  % of control: 52%
[18]
  % of control: 100%
[19]
  % of control: 98%
[20]
  % of control: 2.5%
[21]
  % of control: 100%
[22]
  % of control: 97%
[23]
  % of control: 100%
[24]
  % of control: 100%
[25]
  % of control: 87%
[26]
  % of control: 88%
[27]
  % of control: 94%
[28]
  % of control: 85%
[29]
  % of control: 88%
[30]
  % of control: 100%
[31]
  % of control: 100%
[32]
  % of control: 98%
[33]
  % of control: 100%
[34]
  % of control: 100%
[35]
  % of control: 100%
[36]
  % of control: 98%
[37]
  % of control: 83%
[38]
  % of control: 93%
[39]
  % of control: 73%
